PubChem BioAssay AID652272 – Drosophila RNAi Screening Center | 2013

Assay: 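Finding fly genes that regulate Hedgehog signal transduction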 (primary screen)
System: Drosophila clone 8 (Cl8) cells
Reagent: long dsRNA against Drosophila genes
Read-out: 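Firefly light from a Hedgehog-responsive ptc promoter reporter and Renilla reference light, both read on a plate reader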
Scale: firefly Hh reporter signal: higher = more ptc reporter light; Renilla reference signal: higher = more Renilla control light
Call rule: 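Hit when the z-score averaged over two replicates is under -2 or over +3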
Calls: active = hit: reporter lowered or raised; inactive = not a hit
In all, the deposit lists about 21,000 reagents; shown is an unselected part of those that have a named target and a result. Over the whole deposit, 503 (2.4%) were called active. 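Raw plate light values, not normalised; calls rest on replicate z-scores that were not deposited; hits include reporter decreases as well as increases.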 A number with no mark means an inactive call. Reagent sequences are not shown. The record does not give: the amount of reagent, the time to read-out.

| Gene | amplicon | firefly Hh reporter signal, replicate 1 | firefly Hh reporter signal, replicate 2 | firefly Hh reporter signal, replicate 3 | Renilla reference signal, replicate 1 | Renilla reference signal, replicate 2 |
| --- | --- | --- | --- | --- | --- | --- |
| CG6628 | DRSC10679 | 51424 | 45840 | 45412 | 4320 | 2620 |
| CG4390 | DRSC15572 | 86919 | 58521 | – | 3792 | 2360 |
| HP1b | DRSC18418 | 1.41e5 | 3.09e5 | – | 4977 | 11493 |
| Uba4 | DRSC02194 | 92275 | 42896 | – | 2233 | 3972 |
| CG18870 | DRSC04313 | 79216 | 60315 | – | 2288 | 5020 |
| fan | DRSC10930 | 46930 | 67106 | – | 5219 | 5008 |
| CG15548 | DRSC15086 | 92373 | 1.16e5 | – | 3168 | 3209 |
| CR18228 | DRSC15317 | 78374 | 1.08e5 | – | 2619 | 3051 |
| CG43117 | DRSC13767 | 47001 | 1.71e5 | – | 12285 | 3712 |
| D2hgdh | DRSC18577 | 1.78e5 | 1.11e5 | – | 3884 | 3712 |
| CG31431 | DRSC14589 | 7.47e5 | 1.68e5 | – | 38176 | 2582 |
| dre4 | DRSC08714 | 63576 | 46363 | – | 2781 | 3401 |
| CG6650 | DRSC10685 | 1.21e5 | 53456 | – | 4513 | 1770 |
| CG30323 | DRSC07656 | 43232 | 75158 | – | 859 | 5152 |
| l(2)k05911 | DRSC02523 | 5.04e5 | 87136 | – | 3688 | 3688 |
| l(3)neo43 | DRSC14988 | 90500 | 1.01e5 | – | 2268 | 2436 |
| CG14107 | DRSC10110 | 32545 | 27353 | 21922 | 3913 | 2393 |
| CG14855 | DRSC14979 | 1.27e5 | 81877 | – | 4707 | 2660 |
| Pfdn1 | DRSC02325 | 1.43e5 | 60725 | – | 3549 | 6361 |
| fsd | DRSC06166 | 94272 | 43655 | – | 2345 | 3527 |
| mRpL42 | DRSC06235 | 78521 | 63159 | – | 1858 | 4893 |
| CG14668 | DRSC12254 | 47251 | 96197 | – | 1923 | 2864 |
| jef | DRSC06198 | 1.15e5 | 49542 | – | 3236 | 4089 |
| CG31313 | DRSC13044 | 49253 | 1.31e5 | – | 10576 | 2562 |
| CG9372 | DRSC11068 | 1.07e5 | 96740 | – | 3723 | 2810 |
| otk2 | DRSC07303 | 70721 | 52371 | – | 1898 | 3619 |
| CG15353 | DRSC00383 | 1.29e5 | 6.14e5 | 1.11e5 | 2752 | 4583 |
| CG5555 | DRSC15834 | 1.28e5 | 57616 | – | 5692 | 2377 |
| Spt6 | DRSC18836 | 34176 | 36340 | – | 1186 | 1283 |
| Fas2 | DRSC17308 | 4.26e5 | 1.28e5 | – | 21632 | 2920 |
| Fas2 | DRSC17309 | 4.54e5 | 1.95e5 | – | 22217 | 3745 |
| Fas2 | DRSC18664 | 1.22e5 | 1.11e5 | – | 2405 | 3893 |
| CG11231 (retired record) | DRSC17207 | 79258 | 2.43e5 | – | 2653 | 9687 |
| ppk31 | DRSC13811 | 1955 | 2.29e5 | – | 538 | 4807 |
| Cul3 | DRSC03537 | 80136 | 49397 | – | 2861 | 2161 |
| shg | DRSC04714 | 1.31e5 | 77872 | – | 5218 | 3059 |
| CG14780 | DRSC18566 | 78293 | 1.45e5 | – | 3125 | 5456 |
| CG11384 | DRSC18628 | 77808 | 1.78e5 | – | 1521 | 7542 |
| Nlg1 | DRSC12485 | 2.39e5 | – | – | 3872 | – |
| Nlg1 | DRSC12532 | 46134 | 93328 | – | 2156 | 2716 |
| Nlg1 | DRSC12533 | 66103 | 1.50e5 | – | 2725 | 3944 |
| Nlg1 | DRSC12539 | 54816 | 78326 | – | 2054 | 2141 |
| l(2)34Fc | DRSC01910 | 1.24e5 | 54960 | – | 3040 | 5479 |
| siz | DRSC11622 | 91219 | 1.17e5 | – | 2917 | 3090 |
| siz | DRSC11689 | 1.18e5 | 1.52e5 | – | 3812 | 4496 |
| siz | DRSC11690 | 71467 | 94825 | – | 2480 | 3216 |
| CG31380 | DRSC15688 | 4.81e5 | 90256 | – | 23424 | 2580 |
| CG40191 | DRSC21041 | 4.80e5 | 2.16e5 | – | 30726 | 4855 |
| Ogdh | DRSC09854 | 1.26e5 | 91068 | – | 4876 | 3987 |
| Ogdh | DRSC09855 | 1.07e5 | – | – | 4746 | 3618 |
| CG14708 | DRSC14930 | 65276 | 1.12e5 | – | 1906 | 6199 |
| DAT | DRSC07394 | 1.04e5 | 56857 | – | 3184 | 4566 |
| Sln | DRSC07133 | 79457 | 61332 | – | 2244 | 4051 |
| TAF1B | DRSC16001 | 1.24e5 | 80370 | – | 5805 | 3200 |
| COX7B | DRSC10895 | 1.55e5 | – | – | 5840 | 3850 |
| prom | DRSC04684 | 87128 | 41763 | – | 1808 | 3398 |
| SPR | DRSC17390 | 6.08e5 | 2.56e5 | – | 26886 | 3388 |
| SPR | DRSC17886 | 77132 | 1.54e5 | – | 915 | 6236 |
| SPR | DRSC18114 | 98849 | 1.76e5 | – | 3776 | 7533 |
| Adgf-A2 | DRSC09507 | 1.77e5 | – | – | 3880 | – |
| Cenp-C | DRSC14371 | 71494 | 87376 | – | 2653 | 2566 |
| Ankrd49 | DRSC01894 | 78262 | 66329 | – | 2370 | 5981 |
| CG31368 | DRSC14949 | 49413 | 73540 | – | 1953 | 1980 |
| CG31368 | DRSC14951 | 98134 | 71664 | – | 3820 | 2899 |
| CG5339 | DRSC04496 | 69266 | 60091 | – | 3285 | 2519 |
| CG43315 | DRSC06296 | 1.04e5 | 40485 | – | 2700 | 3331 |
| CG10283 | DRSC02034 | 65216 | 68625 | – | 2684 | 2616 |
| Ubqn | DRSC19581 | 88977 | 75245 | – | 2454 | 2353 |
| robl | DRSC07674 | 1.11e5 | 74499 | – | 2892 | 5168 |
| CG2182 | DRSC12308 | 1.06e5 | 95991 | – | 4105 | 3619 |
| Tbcd | DRSC00273 | 93808 | 71933 | – | 4166 | 2460 |
| crok | DRSC02593 | 1.97e5 | 88912 | – | 4848 | 8354 |
| CG30432 | DRSC04833 | 1.68e5 | 2.11e5 | – | 4123 | 9975 |

Quoted from the listing, 11 entries:
| Gene | amplicon | firefly Hh reporter signal, replicate 1 | firefly Hh reporter signal, replicate 2 | firefly Hh reporter signal, replicate 3 | Renilla reference signal, replicate 1 | Renilla reference signal, replicate 2 |
| --- | --- | --- | --- | --- | --- | --- |
| SPR | DRSC18114 | 98849 | 1.76e5 | – | 3776 | 7533 |
| Adgf-A2 | DRSC09507 | 1.77e5 | – | – | 3880 | – |
| Cenp-C | DRSC14371 | 71494 | 87376 | – | 2653 | 2566 |
| Ankrd49 | DRSC01894 | 78262 | 66329 | – | 2370 | 5981 |
| CG31368 | DRSC14949 | 49413 | 73540 | – | 1953 | 1980 |
| CG31368 | DRSC14951 | 98134 | 71664 | – | 3820 | 2899 |
| CG5339 | DRSC04496 | 69266 | 60091 | – | 3285 | 2519 |
| CG43315 | DRSC06296 | 1.04e5 | 40485 | – | 2700 | 3331 |
| CG10283 | DRSC02034 | 65216 | 68625 | – | 2684 | 2616 |
| Ubqn | DRSC19581 | 88977 | 75245 | – | 2454 | 2353 |
| robl | DRSC07674 | 1.11e5 | 74499 | – | 2892 | 5168 |
